# Measurements taken from the supplement of paper PMC6411743.
# Protein sequences, listed by entry. Tags and fused reporters are not part of them. Lines headed by an entry give the natural chain unless they say otherwise; changes in a name come on top.
# UniProt P16150: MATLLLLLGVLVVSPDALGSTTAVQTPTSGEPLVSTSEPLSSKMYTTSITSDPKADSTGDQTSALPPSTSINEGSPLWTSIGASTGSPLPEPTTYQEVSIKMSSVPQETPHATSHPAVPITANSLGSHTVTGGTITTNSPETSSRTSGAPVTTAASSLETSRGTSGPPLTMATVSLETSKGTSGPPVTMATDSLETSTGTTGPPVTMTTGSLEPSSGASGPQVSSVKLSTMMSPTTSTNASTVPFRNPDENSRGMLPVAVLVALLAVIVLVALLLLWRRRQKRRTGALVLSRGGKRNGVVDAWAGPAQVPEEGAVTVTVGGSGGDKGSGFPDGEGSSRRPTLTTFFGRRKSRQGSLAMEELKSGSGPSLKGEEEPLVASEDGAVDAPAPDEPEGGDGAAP
# UniProt P20701: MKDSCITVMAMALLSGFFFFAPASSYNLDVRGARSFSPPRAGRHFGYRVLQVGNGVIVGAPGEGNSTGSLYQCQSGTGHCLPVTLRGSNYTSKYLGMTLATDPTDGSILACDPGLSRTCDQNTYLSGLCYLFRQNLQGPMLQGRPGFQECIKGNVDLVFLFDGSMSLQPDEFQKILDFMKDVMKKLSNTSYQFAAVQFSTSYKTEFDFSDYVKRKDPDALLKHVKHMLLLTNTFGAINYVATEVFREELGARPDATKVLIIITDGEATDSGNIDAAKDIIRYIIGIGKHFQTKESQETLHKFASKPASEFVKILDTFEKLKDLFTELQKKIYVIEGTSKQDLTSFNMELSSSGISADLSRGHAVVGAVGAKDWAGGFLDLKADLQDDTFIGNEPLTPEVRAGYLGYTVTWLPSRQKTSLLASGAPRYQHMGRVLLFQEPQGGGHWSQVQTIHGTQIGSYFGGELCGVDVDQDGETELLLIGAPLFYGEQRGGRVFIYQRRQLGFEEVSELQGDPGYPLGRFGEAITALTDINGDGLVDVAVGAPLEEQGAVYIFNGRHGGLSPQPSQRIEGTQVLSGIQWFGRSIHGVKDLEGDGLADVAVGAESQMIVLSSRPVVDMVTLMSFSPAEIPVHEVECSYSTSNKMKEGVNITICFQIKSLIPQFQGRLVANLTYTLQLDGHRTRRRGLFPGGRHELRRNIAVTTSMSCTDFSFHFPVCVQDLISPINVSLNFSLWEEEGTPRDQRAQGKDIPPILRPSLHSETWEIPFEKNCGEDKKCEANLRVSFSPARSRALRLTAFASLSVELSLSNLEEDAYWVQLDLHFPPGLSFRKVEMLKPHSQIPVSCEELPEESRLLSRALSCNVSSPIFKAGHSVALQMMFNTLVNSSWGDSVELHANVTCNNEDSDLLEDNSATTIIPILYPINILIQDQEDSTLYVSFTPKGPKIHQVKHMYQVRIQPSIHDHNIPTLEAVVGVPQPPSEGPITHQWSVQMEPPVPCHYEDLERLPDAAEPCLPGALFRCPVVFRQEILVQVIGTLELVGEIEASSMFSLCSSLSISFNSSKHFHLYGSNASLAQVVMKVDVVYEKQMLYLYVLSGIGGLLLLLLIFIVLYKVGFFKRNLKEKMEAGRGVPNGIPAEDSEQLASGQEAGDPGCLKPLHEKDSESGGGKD
# UniProt P10398: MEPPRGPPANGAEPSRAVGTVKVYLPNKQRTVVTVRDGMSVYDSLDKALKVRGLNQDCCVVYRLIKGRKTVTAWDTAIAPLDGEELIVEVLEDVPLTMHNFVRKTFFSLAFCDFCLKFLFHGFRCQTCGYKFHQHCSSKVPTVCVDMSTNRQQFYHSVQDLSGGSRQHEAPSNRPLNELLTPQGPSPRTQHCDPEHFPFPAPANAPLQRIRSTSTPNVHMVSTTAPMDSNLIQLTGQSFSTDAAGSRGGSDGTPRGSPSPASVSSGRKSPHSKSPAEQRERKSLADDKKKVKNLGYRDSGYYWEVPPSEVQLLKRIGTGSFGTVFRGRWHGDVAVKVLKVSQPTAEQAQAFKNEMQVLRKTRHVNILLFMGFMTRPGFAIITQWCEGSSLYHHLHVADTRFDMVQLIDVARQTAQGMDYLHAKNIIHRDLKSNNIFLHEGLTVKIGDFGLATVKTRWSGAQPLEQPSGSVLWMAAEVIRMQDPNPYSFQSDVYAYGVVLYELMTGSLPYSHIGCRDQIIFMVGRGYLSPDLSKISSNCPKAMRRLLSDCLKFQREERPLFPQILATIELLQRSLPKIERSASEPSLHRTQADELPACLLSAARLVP
# UniProt P24539: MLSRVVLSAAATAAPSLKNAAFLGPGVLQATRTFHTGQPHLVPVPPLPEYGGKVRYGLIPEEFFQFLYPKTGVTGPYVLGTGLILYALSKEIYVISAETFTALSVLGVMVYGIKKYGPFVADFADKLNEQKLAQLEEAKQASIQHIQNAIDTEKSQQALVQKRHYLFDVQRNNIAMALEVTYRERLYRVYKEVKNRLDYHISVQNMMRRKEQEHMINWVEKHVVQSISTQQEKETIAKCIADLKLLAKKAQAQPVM
# ± gives the standard deviation of the averaged measurements. The list shows a part of the results.
# Compound: Nc1nc2c(ncn2[C@@H]2O[C@H](COP(=O)(O)OP(=O)(O)OP(=O)(O)O)[C@@H](O)[C@H]2O)c(=O)[nH]1 [guanosine triphosphate]
# Test: NP40-soluble protein abundance relative to vehicle (solubility fold change) (ratio); higher = more soluble protein in presence of GTP
# Procedure: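 Solubility proteome profiling in Jurkat crude lysate. Lysate was treated with Mg-GTP (0.1-10 mM) for 10 min at room temperature and 3 min at 37 °C, then solubilised with 0.8% NP40 and benzonase, followed by ultracentrifugation. Proteins were quantified by TMT10 LC-MS/MS; the value is the NP40-soluble abundance relative to the NP40-processed vehicle, from 3 independent experiments.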
Target,NP40-soluble protein abundance (concentration: 0.1mM),NP40-soluble protein abundance (concentration: 0.5mM),NP40-soluble protein abundance (concentration: 1mM),NP40-soluble protein abundance (concentration: 2mM),NP40-soluble protein abundance (concentration: 4mM),NP40-soluble protein abundance (concentration: 6mM),NP40-soluble protein abundance (concentration: 8mM),NP40-soluble protein abundance (concentration: 10mM)
SPN (UniProt P16150),0.771 ± 0.084,0.704 ± 0.11,0.744 ± 0.14,0.736 ± 0.12,0.771 ± 0.13,0.738 ± 0.15,0.676 ± 0.1,0.785 ± 0.1
UniProt P20701 and related entries,1.012 ± 0.0059,0.998 ± 0.026,0.991 ± 0.012,0.978 ± 0.011,0.974 ± 0.019,0.982 ± 0.025,0.972 ± 0.0027,0.983 ± 0.03
UniProt P10398 and related entries,1.1 ± 0.057,1.19 ± 0.11,1.21 ± 0.17,1.27 ± 0.13,1.21 ± 0.26,1.27 ± 0.21,1.25 ± 0.14,1.2 ± 0.14
UniProt P24539 and related entries,0.856 ± 0.14,0.84 ± 0.045,1.06 ± 0.17,1.11 ± 0.15,1.08 ± 0.21,1.13 ± 0.14,0.949 ± 0.2,1.15 ± 0.24
UniProt P15927-2,0.95 ± 0.06,0.893 ± 0.048,0.956 ± 0.052,0.907 ± 0.099,0.905 ± 0.052,0.893 ± 0.073,0.901 ± 0.066,0.883 ± 0.057
